These results are taken from publication PMC11076521.

The chains behind the UniProt entries cited, without tags or fusion partners. Where a name states a change or a piece, a line headed by the entry shows the natural chain unless it says otherwise.
UniProt Q13772: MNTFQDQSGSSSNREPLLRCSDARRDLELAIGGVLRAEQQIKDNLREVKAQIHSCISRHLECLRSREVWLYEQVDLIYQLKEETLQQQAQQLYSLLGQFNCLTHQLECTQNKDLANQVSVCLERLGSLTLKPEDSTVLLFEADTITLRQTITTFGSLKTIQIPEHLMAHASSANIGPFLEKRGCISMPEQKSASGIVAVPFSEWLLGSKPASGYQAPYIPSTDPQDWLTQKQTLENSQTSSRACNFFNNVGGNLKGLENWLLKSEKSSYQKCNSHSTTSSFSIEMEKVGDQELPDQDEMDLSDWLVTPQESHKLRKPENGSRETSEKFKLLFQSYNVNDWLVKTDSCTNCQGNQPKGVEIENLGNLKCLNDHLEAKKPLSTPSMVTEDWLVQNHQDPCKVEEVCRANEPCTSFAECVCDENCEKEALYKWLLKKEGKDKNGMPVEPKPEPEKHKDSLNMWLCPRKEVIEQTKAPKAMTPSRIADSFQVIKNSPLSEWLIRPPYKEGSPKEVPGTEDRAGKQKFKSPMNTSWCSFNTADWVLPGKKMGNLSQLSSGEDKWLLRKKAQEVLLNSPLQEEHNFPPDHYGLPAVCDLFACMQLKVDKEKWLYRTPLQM
UniProt P02792: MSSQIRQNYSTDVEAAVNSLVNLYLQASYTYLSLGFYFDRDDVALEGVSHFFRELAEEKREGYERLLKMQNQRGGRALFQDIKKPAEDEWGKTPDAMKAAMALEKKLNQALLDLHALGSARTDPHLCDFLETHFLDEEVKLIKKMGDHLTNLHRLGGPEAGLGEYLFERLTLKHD

In this test the target is mGFP-NCOA4 (UniProt Q13772). Kind of test: co-IP; HeLa-FTH1 KO cells stably expressing mGFP-NCOA4 and mRuby3-FTH1/FTL constructs; anti-GFP IP of mGFP-NCOA4, immunoblot.

Results are given in words; binding and its absence hold for the method and conditions named. In cells and extracts the contact can be indirect. Some binding calls cover weakened binding; strength is not graded here.

On to “mRuby3-FTL-L2H mutant (FTL S19R, Q26Y, A86D, K106N) (from UniProt P02792 1-175)”, for which the binding entry is listed as “binds”.
